From US20050220836A1, “Drug delivery device” (priority 2004, published 2005)
For at least one compound, name, drawing or mass did not settle the structure.

Assays:
[1] = system: porcine model, neointimal hyperplasia; test: Animal studies with rapamycin-coated stents, porcine; type: in vivo; settings: porcine and rabbit models, nonerodible polymeric stent coating, 35-430 ug/5-18 mm coronary stent, about twenty-eight to thirty days
[2] = system: monocyte chemotactic protein (MCP-1); test: cytokine levels in vascular tissue after delivery from a stent; type: in vivo; settings: delivered from a stent
[3] = in vitro release kinetics from layered rapamycin, Panzem and polymeric coating; type: physicochemical; settings: Bx Velocity stent, Panzem inner layer, rapamycin outer layer, no topcoat
Patients = test: Sirolimus FIM, patients treated with a Rapamycin-coated Stent (QCA, IVUS); type: in vivo, human; settings: humans, angiographic and intravascular ultrasound measurements, sustained for at least one year

Q: Which results are given for `CO[C@H]1C[C@@H]2CC[C@@H](C)[C@@](O)(O2)C(=O)C(=O)N2CCCC[C@H]2C(=O)O[C@H]([C@H](C)C[C@@H]2CC[C@@H](O)[C@H](OC)C2)CC(=O)[C@H](C)/C=C(\C)[C@@H](O)[C@@H](OC)C(=O)[C@H](C)C[C@H](C)/C=C/C=C/C=C/1C` [Rapamycin, rapamycin]?
A: peak reduction in neointimal hyperplasia [1]: fifty to fifty-five percent; reduction of monocyte chemotactic protein (MCP-1) levels in the vascular wall [2]: highly effective in reducing; in vitro elution from layered EVA/BMA coating compared with Panzem [3]: elutes more slowly than Panzem®; neointimal hyperplasia inside the stent (Patients): essentially total abolition of neointimal hyperplasia
